The text below walks through data of PMC7081327.

By UniProt entry, the sequences of proteins in these tests, tags left out.
UniProt O43474: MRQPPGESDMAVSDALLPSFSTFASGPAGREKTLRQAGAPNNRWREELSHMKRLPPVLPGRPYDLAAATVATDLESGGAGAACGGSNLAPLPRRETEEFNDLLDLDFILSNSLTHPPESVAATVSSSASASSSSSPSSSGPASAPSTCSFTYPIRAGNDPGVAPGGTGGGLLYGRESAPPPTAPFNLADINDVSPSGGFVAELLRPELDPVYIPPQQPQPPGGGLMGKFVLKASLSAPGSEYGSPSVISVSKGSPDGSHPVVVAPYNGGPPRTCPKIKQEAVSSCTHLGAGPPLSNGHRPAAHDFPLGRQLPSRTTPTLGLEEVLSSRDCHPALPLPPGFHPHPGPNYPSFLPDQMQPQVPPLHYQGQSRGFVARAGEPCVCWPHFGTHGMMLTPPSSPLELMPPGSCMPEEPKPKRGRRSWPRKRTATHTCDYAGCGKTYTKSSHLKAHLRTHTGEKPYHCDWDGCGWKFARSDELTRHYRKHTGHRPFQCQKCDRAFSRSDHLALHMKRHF
UniProt Q9GZV5: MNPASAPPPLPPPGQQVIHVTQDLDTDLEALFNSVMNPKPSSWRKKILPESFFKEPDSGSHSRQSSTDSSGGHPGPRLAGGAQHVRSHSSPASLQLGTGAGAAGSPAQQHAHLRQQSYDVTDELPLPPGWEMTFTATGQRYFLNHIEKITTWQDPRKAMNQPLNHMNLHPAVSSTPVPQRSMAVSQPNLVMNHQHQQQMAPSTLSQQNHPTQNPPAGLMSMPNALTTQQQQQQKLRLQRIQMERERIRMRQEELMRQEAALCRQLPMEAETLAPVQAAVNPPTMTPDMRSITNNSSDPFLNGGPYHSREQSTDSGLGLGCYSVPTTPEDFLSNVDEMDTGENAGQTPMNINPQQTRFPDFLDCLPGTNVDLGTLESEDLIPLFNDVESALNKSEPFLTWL
UniProt P46937: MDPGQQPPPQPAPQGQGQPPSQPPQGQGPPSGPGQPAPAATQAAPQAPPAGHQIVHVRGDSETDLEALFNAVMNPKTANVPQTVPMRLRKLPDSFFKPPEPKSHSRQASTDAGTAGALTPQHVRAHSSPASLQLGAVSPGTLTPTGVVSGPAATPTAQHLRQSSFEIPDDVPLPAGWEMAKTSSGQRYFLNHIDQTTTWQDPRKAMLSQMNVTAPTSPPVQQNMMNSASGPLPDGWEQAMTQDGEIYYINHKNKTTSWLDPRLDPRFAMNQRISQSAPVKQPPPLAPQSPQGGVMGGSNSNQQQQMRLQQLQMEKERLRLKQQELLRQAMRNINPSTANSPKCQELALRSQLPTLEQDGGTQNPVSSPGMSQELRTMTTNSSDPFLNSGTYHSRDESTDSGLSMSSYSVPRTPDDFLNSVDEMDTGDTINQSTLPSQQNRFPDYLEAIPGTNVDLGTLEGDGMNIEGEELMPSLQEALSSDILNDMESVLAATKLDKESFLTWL

Results are given in words; binding and its absence hold for the method and conditions named. In cells and extracts the contact can be indirect. Some results given as binding are weak or reduced against the parent protein; the word gives no strength.

This experiment addresses KLF4 in N/TERT2G keratinocytes (human (endogenous in N/TERT2G)) (UniProt O43474). Description: co-IP; N/TERT2G cells transduced with TEADi or GFP; the interaction is increased by TEADi; precipitating antibody not told in the legend; western blot (Fig. 4a). On the technique in general: Immunoblotting shows a protein as a band on a membrane.

Regarding “TAZ (WWTR1) in N/TERT2G keratinocytes (from UniProt Q9GZV5 1-400)”, the binding result is given as “binds”.

For the substance “YAP1 in N/TERT2G keratinocytes (from UniProt P46937 1-504)”, the binding result is “binds”.
